Drawing on PMC5080790, this text covers binding for three substances.

Amino acid sequences for entries named in this document (tags omitted). A change or cut given only in a name is not applied to a line headed by its entry.
UniProt Q9Y466: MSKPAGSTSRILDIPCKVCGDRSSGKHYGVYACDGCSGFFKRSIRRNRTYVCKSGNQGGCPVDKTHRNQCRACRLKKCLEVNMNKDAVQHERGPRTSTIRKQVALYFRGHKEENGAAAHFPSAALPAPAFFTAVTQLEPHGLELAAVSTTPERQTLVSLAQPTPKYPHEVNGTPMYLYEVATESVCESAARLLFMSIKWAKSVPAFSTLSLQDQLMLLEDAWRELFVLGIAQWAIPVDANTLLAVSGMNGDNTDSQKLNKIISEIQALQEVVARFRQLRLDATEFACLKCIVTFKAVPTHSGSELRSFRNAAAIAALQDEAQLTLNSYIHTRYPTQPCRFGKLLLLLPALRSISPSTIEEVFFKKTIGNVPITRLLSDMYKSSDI
UniProt P10275: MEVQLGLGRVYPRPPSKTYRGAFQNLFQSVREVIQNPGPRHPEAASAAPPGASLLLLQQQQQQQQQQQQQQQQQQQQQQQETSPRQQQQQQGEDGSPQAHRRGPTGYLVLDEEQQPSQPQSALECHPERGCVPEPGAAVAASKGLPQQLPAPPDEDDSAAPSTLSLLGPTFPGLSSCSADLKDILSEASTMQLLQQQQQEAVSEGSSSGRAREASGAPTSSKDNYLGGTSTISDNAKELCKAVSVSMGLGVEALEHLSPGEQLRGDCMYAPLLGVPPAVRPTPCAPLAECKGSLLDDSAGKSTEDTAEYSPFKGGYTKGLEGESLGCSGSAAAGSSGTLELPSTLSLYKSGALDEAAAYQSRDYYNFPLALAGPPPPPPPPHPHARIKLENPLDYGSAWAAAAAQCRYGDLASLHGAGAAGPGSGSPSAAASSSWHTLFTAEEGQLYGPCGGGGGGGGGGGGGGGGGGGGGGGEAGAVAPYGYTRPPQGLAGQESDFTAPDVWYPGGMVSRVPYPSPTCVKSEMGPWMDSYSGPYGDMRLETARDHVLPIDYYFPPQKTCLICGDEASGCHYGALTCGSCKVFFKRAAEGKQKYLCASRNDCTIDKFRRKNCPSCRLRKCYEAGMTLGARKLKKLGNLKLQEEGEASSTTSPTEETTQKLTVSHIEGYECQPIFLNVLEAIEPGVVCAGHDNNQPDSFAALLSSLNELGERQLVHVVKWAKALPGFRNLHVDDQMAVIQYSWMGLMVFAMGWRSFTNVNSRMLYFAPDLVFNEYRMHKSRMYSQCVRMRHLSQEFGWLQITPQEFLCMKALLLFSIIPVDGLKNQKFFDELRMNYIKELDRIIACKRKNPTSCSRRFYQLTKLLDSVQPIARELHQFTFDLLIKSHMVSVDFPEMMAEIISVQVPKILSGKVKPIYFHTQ
UniProt Q09472: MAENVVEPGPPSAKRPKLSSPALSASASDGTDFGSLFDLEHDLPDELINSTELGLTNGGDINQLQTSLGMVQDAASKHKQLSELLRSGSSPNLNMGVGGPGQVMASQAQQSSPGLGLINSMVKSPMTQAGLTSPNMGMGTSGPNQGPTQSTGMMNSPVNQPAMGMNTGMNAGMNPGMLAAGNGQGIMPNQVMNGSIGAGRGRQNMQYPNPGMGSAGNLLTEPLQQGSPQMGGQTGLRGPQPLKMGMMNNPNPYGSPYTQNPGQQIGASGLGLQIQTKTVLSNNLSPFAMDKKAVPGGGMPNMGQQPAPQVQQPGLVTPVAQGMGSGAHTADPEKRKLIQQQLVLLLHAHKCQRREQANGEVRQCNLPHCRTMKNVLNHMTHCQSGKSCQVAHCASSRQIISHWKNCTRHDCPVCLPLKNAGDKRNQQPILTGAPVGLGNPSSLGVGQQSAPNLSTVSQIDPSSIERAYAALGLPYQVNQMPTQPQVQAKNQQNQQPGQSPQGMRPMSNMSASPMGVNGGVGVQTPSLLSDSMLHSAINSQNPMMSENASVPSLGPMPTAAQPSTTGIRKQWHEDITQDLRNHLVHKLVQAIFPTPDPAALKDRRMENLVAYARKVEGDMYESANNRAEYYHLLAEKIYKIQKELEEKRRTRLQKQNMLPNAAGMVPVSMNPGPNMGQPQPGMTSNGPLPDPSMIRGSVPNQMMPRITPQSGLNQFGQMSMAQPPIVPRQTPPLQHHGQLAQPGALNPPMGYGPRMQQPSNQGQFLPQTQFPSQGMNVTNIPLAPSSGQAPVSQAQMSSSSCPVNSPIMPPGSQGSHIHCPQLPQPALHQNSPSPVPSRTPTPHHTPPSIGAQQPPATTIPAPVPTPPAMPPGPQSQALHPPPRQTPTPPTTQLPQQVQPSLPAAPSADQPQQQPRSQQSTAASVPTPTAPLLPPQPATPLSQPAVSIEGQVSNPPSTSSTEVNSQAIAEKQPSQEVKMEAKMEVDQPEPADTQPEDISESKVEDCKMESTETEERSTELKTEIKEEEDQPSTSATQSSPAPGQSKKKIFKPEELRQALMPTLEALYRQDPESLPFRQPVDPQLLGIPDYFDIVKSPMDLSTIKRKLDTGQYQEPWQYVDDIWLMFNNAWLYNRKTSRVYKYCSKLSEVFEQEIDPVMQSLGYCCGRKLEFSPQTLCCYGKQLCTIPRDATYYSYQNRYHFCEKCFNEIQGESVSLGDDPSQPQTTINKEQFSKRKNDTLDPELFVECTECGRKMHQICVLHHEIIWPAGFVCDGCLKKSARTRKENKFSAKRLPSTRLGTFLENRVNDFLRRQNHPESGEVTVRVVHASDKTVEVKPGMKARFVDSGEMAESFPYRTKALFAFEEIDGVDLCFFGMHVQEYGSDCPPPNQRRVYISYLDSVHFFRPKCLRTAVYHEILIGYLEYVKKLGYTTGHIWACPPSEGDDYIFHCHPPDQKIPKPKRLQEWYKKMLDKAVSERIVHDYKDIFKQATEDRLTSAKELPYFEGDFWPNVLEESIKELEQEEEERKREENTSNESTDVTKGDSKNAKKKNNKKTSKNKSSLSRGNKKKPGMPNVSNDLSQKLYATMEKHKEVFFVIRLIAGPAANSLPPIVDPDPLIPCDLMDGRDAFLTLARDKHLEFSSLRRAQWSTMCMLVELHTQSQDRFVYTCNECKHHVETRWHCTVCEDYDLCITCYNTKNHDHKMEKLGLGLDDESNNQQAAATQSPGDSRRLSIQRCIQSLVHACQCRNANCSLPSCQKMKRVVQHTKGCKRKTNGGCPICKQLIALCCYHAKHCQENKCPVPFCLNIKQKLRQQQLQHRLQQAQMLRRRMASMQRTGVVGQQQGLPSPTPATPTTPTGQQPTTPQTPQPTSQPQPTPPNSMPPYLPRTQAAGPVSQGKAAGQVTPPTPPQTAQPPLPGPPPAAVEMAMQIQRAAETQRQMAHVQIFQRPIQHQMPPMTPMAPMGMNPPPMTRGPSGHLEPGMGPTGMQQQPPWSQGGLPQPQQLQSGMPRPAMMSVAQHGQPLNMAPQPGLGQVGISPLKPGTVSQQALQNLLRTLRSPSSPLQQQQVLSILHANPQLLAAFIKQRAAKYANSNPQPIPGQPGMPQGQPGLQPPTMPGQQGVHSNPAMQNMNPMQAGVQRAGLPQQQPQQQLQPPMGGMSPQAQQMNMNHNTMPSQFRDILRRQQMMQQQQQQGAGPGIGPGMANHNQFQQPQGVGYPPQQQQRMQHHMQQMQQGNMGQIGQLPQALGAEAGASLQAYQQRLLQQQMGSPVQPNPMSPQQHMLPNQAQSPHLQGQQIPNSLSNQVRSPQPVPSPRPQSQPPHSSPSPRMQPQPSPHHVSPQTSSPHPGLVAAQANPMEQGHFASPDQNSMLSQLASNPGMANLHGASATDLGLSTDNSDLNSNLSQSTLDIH

One test concerns the target GST-NR2E1 (human) (UniProt Q9Y466). Kind of test: pull-down; GST or GST fusion from E. coli lysate held on glutathione MagBeads, washed, blocked with 1 % BSA/PBS; HEK293 lysate (0.1 % BSA) with the overexpressed protein for two hours at 4 °C; western blot (anti-FLAG, anti-EGFP, anti-myc); only the target purified. Background: A western blot detects proteins with antibodies after separation by electrophoresis.

The target in test [1] is T1, Atro box peptide from atrophin-1 (wild type) (Drosophila).
T1 sequence (peptide): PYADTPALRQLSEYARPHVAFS
Kind of test: peptide or protein array; MARCoNI on Nuclear Receptor PamChip Arrays: peptides immobilised; HEK293 lysate with FLAG-NR2E1LBD (equal amounts, wild type or variant) in TBS with 0.2 % BSA, 0.05 % Tween-20, 50 uM DTT, 2 % DMSO, 25 nM anti-Flag-FITC, 120 cycles (30 s/cycle); further detection with goat anti mouse FITC; three technical replicates; only the target purified.

Test [2] addresses T2, Mutant Atro box peptide (two leucines to alanines) (Drosophila).
T2 sequence (peptide): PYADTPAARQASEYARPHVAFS
The test is described as above.

These are yes or no findings as the source states them, for the method shown. Binding calls can cover weak binding; strength is not graded here. For some of these results: Binding seen in cells or lysates may run through a third protein.

Turning to “EGFP-tagged androgen receptor (AR-EGFP) (from UniProt P10275 1-920)”, the binding result in the test with GST-NR2E1 (human) is on record as “binds”.
For the substance “N-terminal FLAG-tagged NR2E1 ligand-binding domain (FLAG-NR2E1LBD), wild type (from UniProt Q9Y466) (domain or fragment)”, the binding result in test [1] is reported as “binds”; in test [2], “binds weakly”.
In the case of “Myc-tagged P300 (P300-Myc) (from UniProt Q09472 1-2414)”, the binding entry with GST-NR2E1 (human) is listed as “binds”.
